The target of this series is T1, GntR (UniProt Q8NMP1).
T1 sequence (looked up, limits assumed): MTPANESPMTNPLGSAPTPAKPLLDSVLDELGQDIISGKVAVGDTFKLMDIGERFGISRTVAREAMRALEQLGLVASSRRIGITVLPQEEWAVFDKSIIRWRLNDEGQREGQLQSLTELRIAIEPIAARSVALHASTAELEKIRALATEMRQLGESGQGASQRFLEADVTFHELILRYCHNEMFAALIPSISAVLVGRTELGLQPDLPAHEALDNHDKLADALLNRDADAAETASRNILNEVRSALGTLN
The experiment in a line: EMSA. The conditions noted are these: EMSA: 14 nM DNA, pH and temperature in Text S1, recombinant protein, protein details: His-tag, probe letters rebuilt from the primers and the genome. (In general: In EMSA bound probe runs differently from free probe, usually more slowly.)

Construct, isoform or probe ends are uncertain for at least one entry. The comparison behind a weaker result is the experiment's own reference, which may not be listed here. Protein sequences can lack the tags named with them. At least one verdict was read from the data and is not stated in words by the source.

As to “AGCGACGCCGCAGGGGGATCCGCTCAAGGAAGAGTTCTTCATTGGTCTTTTGTTGCGGGTTGCCGTAGATGATTTCAGGGTGGCTCAAAGTCAGGGAGGTGTAGTCGAATTCGATTGGGTGAAGCCTGTCGCGATTACGGTTTTCGCGCTCGGTACCAGTAATAAAGCTTGCGATGCGGGAGTAATTAACCCGACCTTTGATAAATACCTGAGTGCCTTCTTTGAGGCTTGATGCCTTGATCTTTTCGGCGACTGGTGCTGGCTGCACAGGTTGAGGGGTAACTGGGTAGGTCATGAGAGAAAAAGCCTTTCGAGAACTGGGTGTAGTGATTTCTGTTGCAGGTTTATGTAGACGAAACTTTAAAAAACCTATATGTTAATAGTAACAGAAATTAATAAGATACTAGAGTTATGATAGTACCAATTTAATTTGTAGTATCCAGGGAACATTAAACGGGTAAAGGTAAAGGACAAACGAACATGGCGATTAAAGGCGCAATGCCGAAAAATTGAACTTTAAGAAGGAGATATCA (double strand) [Plys_CS_0 (EMSA)]”, the binding result (14 nM DNA, no effector, shift at low GntR concentrations) was “binds”; the binding result (100 mM gluconate (effector), GntR dissociates) is “binds more weakly”; the binding result (100 mM glucose (no effector)) is on record as “binds”.

Take “TGATATCTCCTTCTTAAAGTTCAATTTTTCGGCATTGCGCCTTTAATCGCCATGTTCGTTTGTCCTTTACCTTTACCCGTTTAATGTTCCCTGGATACTACAAATTAAACTCTAGTATCTTATTAATTTCTGTTACTATTAACATATAGGTTTTTTAAAGTTTCGTCTACATAAACCTGCAACAGAAATCACTACACCCAGTTCTCGAAAGGCTTTTTCTCTCATGACCTACCCAGTTACCCCTCAACCTGTGCAGCCAGCACCAGTCGCCGAAAAGATCAAGGCATCAAGCCTCAAAGAAGGCACTCAGGTATTTATCAAAGGTCGGGTTAATTACTCCCGCATCGCAAGCTTTATTACTGGTACCGAGCGCGAAAACCGTAATCGCGACAGGCTTCACCCAATCGAATTCGACTACACCTCCCTGACTTTGAGCCACCCTGAAATCATCTACGGCAACCCGCAACAAAAGACCAATGAAGAACTCTTCCTTGAGCGGATCCCCCTGCGGCGTCGCT (double strand) [Plys (EMSA)]”: the binding result (14 nM DNA, lacks the shift at low GntR concentrations) was “binds more weakly”.

The values above are taken from publication PMC7002338.
